US20090131470A1, “PYRAZOLE-SUBSTITUTED BENZIMIDAZOLE DERIVATIVES FOR USE IN THE TREATMENT OF CANCER AND AUTOIMMUNE DISORDERS” (priority 2005, published 2009)
Some of these results come from one statement about several compounds together.

The chains behind the UniProt entries cited, without tags or fusion partners. Where a name states a change or a piece, a line headed by the entry shows the natural chain unless it says otherwise. Residues count along the entry.
UniProt P00519, whole entry: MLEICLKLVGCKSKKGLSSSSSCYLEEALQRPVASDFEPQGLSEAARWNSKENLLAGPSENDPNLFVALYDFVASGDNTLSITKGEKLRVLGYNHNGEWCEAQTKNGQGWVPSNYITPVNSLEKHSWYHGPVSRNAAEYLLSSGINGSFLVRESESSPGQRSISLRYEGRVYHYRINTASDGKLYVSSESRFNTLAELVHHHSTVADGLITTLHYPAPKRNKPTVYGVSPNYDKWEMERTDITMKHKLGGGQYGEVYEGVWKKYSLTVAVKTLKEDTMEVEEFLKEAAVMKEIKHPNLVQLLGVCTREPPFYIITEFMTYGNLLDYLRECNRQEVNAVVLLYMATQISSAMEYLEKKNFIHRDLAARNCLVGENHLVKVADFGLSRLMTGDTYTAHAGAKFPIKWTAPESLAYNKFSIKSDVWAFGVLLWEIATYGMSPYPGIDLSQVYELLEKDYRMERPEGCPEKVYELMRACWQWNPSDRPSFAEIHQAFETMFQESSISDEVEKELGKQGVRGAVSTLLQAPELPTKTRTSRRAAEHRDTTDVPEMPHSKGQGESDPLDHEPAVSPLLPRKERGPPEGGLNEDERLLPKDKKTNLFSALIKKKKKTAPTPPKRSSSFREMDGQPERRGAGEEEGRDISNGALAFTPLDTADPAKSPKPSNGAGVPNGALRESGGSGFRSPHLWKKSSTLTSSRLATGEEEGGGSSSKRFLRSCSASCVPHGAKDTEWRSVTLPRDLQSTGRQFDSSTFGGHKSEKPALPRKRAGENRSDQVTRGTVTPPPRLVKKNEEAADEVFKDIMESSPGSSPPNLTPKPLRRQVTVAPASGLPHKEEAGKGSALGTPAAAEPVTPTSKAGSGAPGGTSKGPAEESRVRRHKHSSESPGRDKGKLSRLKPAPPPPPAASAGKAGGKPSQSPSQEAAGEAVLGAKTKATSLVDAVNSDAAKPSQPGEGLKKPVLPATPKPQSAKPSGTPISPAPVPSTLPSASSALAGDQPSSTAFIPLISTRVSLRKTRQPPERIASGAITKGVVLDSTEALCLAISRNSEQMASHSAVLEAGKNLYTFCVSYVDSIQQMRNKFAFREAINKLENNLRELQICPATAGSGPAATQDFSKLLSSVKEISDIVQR
UniProt P49674: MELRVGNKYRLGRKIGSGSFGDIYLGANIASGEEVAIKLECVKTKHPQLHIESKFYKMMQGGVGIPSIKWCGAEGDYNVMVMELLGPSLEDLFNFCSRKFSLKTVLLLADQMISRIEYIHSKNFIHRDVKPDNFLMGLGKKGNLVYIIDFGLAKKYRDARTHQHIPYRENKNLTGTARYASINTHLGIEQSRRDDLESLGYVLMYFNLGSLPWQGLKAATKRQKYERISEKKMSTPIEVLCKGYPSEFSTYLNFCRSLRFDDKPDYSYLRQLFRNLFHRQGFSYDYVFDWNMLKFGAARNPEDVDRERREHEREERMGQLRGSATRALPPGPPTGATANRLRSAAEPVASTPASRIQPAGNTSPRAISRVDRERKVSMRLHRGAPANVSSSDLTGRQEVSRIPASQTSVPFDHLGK
UniProt P68400, whole entry: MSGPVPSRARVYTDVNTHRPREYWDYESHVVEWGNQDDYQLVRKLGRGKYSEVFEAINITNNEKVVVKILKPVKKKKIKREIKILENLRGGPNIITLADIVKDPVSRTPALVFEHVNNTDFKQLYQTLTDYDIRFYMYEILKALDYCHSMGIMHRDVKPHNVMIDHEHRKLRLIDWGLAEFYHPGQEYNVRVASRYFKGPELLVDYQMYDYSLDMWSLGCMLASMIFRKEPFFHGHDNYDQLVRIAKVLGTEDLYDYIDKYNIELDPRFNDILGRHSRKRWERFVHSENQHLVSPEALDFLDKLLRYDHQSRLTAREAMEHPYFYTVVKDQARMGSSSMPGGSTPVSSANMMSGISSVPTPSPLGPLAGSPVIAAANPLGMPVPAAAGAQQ
UniProt P45983, 1-384 isoform P45983-2: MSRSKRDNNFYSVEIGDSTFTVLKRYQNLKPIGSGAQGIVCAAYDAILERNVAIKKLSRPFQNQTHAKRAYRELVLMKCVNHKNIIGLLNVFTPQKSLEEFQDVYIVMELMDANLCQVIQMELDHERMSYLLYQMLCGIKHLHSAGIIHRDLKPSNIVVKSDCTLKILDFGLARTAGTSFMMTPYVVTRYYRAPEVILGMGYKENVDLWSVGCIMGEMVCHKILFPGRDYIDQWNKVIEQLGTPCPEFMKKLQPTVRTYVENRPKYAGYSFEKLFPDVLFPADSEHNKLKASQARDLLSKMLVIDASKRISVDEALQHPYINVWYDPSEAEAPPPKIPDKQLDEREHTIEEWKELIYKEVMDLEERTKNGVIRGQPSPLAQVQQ
UniProt P16234, 24-1089: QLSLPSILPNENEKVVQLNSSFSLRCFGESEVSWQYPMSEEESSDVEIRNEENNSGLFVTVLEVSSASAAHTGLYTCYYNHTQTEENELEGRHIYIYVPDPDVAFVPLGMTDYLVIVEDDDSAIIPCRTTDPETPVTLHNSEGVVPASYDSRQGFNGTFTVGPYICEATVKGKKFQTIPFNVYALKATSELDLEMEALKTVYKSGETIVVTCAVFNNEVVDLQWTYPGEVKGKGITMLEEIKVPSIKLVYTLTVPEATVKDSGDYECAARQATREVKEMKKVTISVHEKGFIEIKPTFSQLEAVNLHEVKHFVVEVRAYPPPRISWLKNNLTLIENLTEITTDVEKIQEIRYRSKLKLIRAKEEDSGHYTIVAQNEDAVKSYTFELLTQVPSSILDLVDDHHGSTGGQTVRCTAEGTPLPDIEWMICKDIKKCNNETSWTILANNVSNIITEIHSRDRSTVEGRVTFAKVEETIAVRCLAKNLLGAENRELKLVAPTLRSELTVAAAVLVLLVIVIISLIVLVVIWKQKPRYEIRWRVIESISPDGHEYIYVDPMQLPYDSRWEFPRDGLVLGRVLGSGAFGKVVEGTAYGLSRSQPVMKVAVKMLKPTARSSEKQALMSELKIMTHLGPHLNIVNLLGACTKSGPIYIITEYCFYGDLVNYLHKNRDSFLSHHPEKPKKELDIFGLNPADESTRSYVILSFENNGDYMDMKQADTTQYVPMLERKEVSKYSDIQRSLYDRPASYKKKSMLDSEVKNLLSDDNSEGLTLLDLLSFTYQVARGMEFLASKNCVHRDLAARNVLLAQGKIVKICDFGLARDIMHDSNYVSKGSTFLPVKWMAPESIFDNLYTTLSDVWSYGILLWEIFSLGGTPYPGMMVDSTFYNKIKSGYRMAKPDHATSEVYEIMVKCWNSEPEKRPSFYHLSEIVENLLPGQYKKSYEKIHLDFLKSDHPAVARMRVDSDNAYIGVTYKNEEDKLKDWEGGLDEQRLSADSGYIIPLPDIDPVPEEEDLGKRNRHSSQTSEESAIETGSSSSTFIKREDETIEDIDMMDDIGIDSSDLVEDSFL
UniProt Q9H4B4: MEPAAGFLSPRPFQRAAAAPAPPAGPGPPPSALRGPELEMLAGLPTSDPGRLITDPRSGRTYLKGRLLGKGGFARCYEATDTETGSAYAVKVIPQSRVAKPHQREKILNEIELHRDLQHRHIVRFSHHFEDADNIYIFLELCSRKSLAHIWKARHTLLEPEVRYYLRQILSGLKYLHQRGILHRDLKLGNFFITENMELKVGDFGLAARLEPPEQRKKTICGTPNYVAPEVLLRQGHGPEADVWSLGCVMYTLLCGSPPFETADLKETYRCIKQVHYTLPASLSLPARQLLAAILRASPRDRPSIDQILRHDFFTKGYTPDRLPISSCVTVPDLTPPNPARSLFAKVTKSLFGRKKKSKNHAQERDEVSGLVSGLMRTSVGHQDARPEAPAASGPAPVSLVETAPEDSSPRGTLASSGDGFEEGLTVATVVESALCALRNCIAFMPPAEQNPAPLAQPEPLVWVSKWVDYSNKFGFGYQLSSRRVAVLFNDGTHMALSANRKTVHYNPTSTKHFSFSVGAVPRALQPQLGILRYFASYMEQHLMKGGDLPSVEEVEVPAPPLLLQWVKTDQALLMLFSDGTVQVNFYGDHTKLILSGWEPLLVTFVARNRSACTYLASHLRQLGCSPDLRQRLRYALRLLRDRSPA
UniProt O75116: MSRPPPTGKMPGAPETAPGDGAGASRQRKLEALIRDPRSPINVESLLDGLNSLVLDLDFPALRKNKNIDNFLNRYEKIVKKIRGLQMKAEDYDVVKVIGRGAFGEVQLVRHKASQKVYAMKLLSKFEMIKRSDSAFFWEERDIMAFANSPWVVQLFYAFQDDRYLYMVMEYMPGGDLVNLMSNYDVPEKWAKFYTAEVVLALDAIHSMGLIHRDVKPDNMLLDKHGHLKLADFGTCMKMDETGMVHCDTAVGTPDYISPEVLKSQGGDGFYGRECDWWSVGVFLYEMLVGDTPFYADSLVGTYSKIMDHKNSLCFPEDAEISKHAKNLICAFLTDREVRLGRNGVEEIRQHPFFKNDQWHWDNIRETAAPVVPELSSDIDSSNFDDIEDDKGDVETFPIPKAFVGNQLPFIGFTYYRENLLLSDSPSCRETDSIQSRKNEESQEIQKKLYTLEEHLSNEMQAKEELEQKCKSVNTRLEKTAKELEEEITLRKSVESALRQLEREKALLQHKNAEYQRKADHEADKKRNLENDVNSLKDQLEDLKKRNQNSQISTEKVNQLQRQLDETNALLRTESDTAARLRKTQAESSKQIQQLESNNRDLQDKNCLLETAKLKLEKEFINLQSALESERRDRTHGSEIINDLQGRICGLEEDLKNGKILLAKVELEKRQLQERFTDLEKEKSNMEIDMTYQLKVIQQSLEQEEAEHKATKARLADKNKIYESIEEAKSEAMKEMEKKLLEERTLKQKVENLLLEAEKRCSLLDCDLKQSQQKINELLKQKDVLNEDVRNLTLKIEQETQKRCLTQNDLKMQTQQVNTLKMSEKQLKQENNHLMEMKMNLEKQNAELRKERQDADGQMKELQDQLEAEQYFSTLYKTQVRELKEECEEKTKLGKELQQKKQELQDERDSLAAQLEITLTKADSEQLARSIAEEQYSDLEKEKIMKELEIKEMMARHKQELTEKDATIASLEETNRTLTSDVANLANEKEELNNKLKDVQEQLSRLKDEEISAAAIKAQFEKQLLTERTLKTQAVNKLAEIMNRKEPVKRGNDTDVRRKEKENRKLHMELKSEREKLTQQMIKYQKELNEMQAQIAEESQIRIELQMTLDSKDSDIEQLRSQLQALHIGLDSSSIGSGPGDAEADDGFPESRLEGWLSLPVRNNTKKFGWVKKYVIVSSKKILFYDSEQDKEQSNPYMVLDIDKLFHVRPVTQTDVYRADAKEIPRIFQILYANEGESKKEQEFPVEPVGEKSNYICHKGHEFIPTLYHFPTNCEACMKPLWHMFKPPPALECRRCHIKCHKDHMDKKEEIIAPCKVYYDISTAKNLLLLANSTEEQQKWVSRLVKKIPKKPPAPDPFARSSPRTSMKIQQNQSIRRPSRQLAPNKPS
UniProt Q16539, whole entry: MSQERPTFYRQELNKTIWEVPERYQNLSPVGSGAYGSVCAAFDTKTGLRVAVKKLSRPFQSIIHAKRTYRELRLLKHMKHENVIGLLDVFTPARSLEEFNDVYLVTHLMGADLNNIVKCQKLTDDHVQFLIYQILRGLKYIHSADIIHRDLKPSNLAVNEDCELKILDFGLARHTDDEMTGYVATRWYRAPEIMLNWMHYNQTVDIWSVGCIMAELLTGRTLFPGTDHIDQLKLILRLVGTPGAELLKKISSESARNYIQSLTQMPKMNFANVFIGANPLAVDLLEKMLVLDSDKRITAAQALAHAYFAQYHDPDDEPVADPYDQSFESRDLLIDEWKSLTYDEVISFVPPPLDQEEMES

Columns and labels:
Assay in all cases: Broad kinase screening at Upstate
Type in all cases: biochemical
Abl(h) = biological target: T1, Abl(h) (Homo sapiens, UniProt P00519)
T1 construct: purchased Upstate

CK1e(h) = biological target: T2, CK1e(h) (Homo sapiens, UniProt P49674)
T2 construct: purchased Upstate

CK2(h) = biological target: T3, CK2(h) (Homo sapiens, UniProt P68400)
T3 construct: purchased Upstate

IKKa(h) = biological target: T4, IKKa(h) (Homo sapiens, UniProt O15111)
T4 construct: purchased Upstate
T4 sequence (O15111 1-745): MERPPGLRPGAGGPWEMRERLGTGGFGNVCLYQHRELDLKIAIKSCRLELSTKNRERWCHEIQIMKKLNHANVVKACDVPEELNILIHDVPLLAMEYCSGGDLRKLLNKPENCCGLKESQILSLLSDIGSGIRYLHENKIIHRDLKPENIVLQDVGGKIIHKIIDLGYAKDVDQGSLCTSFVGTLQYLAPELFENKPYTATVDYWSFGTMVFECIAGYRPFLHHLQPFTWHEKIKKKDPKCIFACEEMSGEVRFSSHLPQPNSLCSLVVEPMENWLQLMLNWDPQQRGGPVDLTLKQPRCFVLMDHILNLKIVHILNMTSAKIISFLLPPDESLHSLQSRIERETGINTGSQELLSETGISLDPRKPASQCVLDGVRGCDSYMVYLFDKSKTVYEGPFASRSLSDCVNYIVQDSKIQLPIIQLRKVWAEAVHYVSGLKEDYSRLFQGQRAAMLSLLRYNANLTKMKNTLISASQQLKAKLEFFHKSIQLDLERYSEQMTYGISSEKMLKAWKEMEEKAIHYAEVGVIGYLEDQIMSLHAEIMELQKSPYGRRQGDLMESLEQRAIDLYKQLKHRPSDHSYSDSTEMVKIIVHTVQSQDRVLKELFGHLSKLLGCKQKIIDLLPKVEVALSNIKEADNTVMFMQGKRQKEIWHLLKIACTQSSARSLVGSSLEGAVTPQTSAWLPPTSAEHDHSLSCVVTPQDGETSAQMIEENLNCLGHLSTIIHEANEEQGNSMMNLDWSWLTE

JNK1a1(h) = biological target: T5, JNK1a1(h) (Homo sapiens, UniProt P45983)
T5 construct: purchased Upstate

MEK1(h) = biological target: T6, MEK1(h) (Homo sapiens, UniProt Q02750)
T6 construct: purchased Upstate

MKK6(h) = biological target: T7, MKK6(h) (Homo sapiens, UniProt P52564)
T7 construct: purchased Upstate
T7 sequence (P52564 1-334): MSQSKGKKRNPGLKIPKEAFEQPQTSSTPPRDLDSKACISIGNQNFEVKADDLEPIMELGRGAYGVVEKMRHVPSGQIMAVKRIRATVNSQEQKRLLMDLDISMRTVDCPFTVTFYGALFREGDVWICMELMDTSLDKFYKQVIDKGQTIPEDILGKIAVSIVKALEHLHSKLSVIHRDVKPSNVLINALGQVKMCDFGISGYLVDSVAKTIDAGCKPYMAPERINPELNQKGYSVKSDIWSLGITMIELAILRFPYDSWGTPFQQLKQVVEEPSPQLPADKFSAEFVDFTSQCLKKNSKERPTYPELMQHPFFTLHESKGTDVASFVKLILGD

NEK2(h) = biological target: T8, NEK2(h) (Homo sapiens, UniProt P51955)
T8 construct: purchased Upstate
T8 sequence (P51955 1-445): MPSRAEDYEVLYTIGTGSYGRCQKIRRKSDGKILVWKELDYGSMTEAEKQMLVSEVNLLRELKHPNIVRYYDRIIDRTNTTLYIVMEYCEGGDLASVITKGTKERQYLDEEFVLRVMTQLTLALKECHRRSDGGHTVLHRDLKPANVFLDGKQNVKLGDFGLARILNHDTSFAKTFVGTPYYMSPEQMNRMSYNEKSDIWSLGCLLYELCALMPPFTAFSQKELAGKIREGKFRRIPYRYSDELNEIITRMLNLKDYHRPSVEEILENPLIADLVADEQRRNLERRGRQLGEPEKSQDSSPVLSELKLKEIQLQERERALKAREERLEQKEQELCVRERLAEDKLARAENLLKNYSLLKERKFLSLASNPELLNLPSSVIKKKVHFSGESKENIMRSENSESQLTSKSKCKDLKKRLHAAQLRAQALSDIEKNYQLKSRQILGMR

PDGFRa(h) = biological target: T9, PDGFRa(h) (Homo sapiens, UniProt P16234)
T9 construct: purchased Upstate

PLk3(h) = biological target: T10, PLk3(h) (Homo sapiens, UniProt Q9H4B4)
T10 construct: purchased Upstate

ROCK-II(h) = biological target: T11, ROCK-II(h) (Homo sapiens, UniProt O75116)
T11 construct: purchased Upstate

SAPK2a(h) = biological target: T12, SAPK2a(h) (Homo sapiens, UniProt Q16539)
T12 construct: purchased Upstate

Cc1[nH]nc(-c2nc3ccccc3[nH]2)c1C(=O)NC1CCNCC1 [Example 1, 3-(1H-Benzoimidazol-2-yl)-5-methyl-1H-pyrazole-4-carboxylic Acid piperidin-4-ylamide]
> 20 fold: selectivity verses Abl(h) (Abl(h)) | selectivity verses CK1e(h) (CK1e(h)) | selectivity verses CK2(h) (CK2(h)) | selectivity verses IKKa(h) (IKKa(h)) | selectivity verses JNK1a1(h) (JNK1a1(h)) | selectivity verses MEK1(h) (MEK1(h)) | selectivity verses MKK6(h) (MKK6(h)) | selectivity verses NEK2(h) (NEK2(h)) | selectivity verses PDGFRa(h) (PDGFRa(h)) | selectivity verses PLk3(h) (PLk3(h)) | selectivity verses ROCK-II(h) (ROCK-II(h)) | selectivity verses SAPK2a(h) (SAPK2a(h))

Cc1[nH]nc(-c2nc3cc4ccccc4cc3[nH]2)c1C(=O)NC1CCNCC1 [Example 5, 5-Methyl-3-(1H-naphtho[2,3-d]imidazol-2-yl)-1H-pyrazole-4-carboxylic Acid piperidine-4-ylamide]
> 20 fold: selectivity verses Abl(h) (Abl(h)) | selectivity verses CK1e(h) (CK1e(h)) | selectivity verses CK2(h) (CK2(h)) | selectivity verses IKKa(h) (IKKa(h)) | selectivity verses JNK1a1(h) (JNK1a1(h)) | selectivity verses MEK1(h) (MEK1(h)) | selectivity verses MKK6(h) (MKK6(h)) | selectivity verses NEK2(h) (NEK2(h)) | selectivity verses PDGFRa(h) (PDGFRa(h)) | selectivity verses PLk3(h) (PLk3(h)) | selectivity verses ROCK-II(h) (ROCK-II(h)) | selectivity verses SAPK2a(h) (SAPK2a(h))
